Library screen at single concentrations

Measurements from “University of Dundee, Small-Polar-MMV Screening Library” (2021), ChEMBL document CHEMBL3988442.

Toxoplasma: 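Assay of Toxoplasma gondii numbers, read through their beta-galactosidase reporter with a colour substrate. Compounds at 10 µM. The record gives no direction; the compounds picked for IC50 retests had high values, so higher reads as fewer parasites. Size under these conditions: about 67,000 compounds, about 260 of them at 50% or above in at least one test.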
T. brucei: 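Whole-parasite assay of Trypanosoma brucei over 72 hours; the read-out is not stated. Tested at 30 µM. Direction is inferred from retests: higher values go with stronger inhibition. Values scatter widely below zero; nearly all retest evidence comes from the higher of the two concentrations used. About 64,000 compounds were tested under these conditions; 1.5% (about 940) showed 50% or more at least once.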
Leishmania in macrophages: 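Cell assay of Leishmania donovani living inside macrophages; the read-out is not stated. Compounds at 30 µM. The record gives no direction; compounds that gave an IC50 in retests scored well above the rest, so higher reads as stronger inhibition. Size under these conditions: about 69,000 compounds, about 1,000 of them at 50% or above in at least one test.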

The filed quantity is “Percent Effect” (%).
The controls that fix the scale are not given in the record; negative values are as filed.
Compounds were drawn at random from those tested, without regard to their results.

structure,Toxoplasma,T. brucei,Leishmania in macrophages
COc1cc(CN(C)Cc2cccnc2)c(SC)cc1OC,4.291,13.92,13.84
c1ncc2c(n1)CN(Cc1cn3ccsc3n1)CC2,16.06,-23.68,21.81
Cc1ccnc(N2CCN(C3CCS(=O)(=O)C3)CC2)n1 (configuration not stated),4.502,-49.42,35.71
CN1CCOC[C@H]1c1nc(-c2ccccc2)c[nH]1,-4.762,-9.627,13.56
Cc1n[nH]c2c1C(c1ccncc1)SCC(=O)N2 (configuration not stated),5.526,-24.86,2.949
CCc1nnc(Nc2cccc(C3CCCN(CC(C)(C)C)C3)n2)s1 (configuration not stated),15.89,15.27,17.25
O=C(c1n[nH]cc1Cl)N1CCCC(n2nnc3cc(F)ccc32)C1 (configuration not stated),-6.494,-2.765,-12.04
CC(C)NC1CCc2[nH]c(=O)ccc2C1.O=C(O)C(F)(F)F (configuration not stated),1.947,-14.11,7.927
Cn1cc(CC2CC(=O)N(Cc3ccc(Cl)cc3)C2=O)cn1 (configuration not stated),-1.949,-37.79,4.27
CNC(=O)CN1CCC(OCc2ccc(Cl)c(Cl)c2)CC1,-4.003,-11.27,23.39
CCN(CCCNC(=O)c1cc2cccc(F)c2o1)S(C)(=O)=O,-1.447,-35.07,18.84
Cc1ccc2c(n1)N(Cc1cccnc1)CCN(C(=O)C1CC1)C2.O=C(O)C(F)(F)F.O=C(O)C(F)(F)F,-2.765,35.88,6.949
Cl.c1cnc2c(c1)cc([C@@H]1CCCO1)n2CCN1CCCCC1,-10.36,34.12,0.4689
O=C(c1ccc(O)nc1)N1CCc2ccc(O)cc2C1,-3.226,-50.05,26.71
COc1c(CNC(C)C(=O)NC2CCCC2)c(C)nn1C (configuration not stated),5.464,1.025,5.711
Cc1cccc(C)c1OC1CN(Cc2cnc(-c3ccco3)nc2)C1,-10.05,-6.89,4.785
Cc1cnn(CCNCc2c(C)nn(C)c2Cl)c1,7.209,19.72,15.61
C=C(C)COc1ccccc1CN1CCC(NC(C)=O)CC1,12.03,5.113,-17.1
CCN(CC)Cc1cc(C(=O)N2CCCC(CC)(C(=O)O)C2)c(C)o1 (configuration not stated),1.665,-79.56,-6.46
CCCn1cnc2c1CN(S(=O)(=O)c1ccc(F)cc1)[C@H](C(=O)OC)C2,-3.644,-15.64,-26.43
Cc1cc(NC(=O)C(c2cccc(F)c2)N2CCOCC2)sn1 (configuration not stated),17.79,7.823,24.28
O=C(NCCc1ccc(F)cc1)NCC(O)c1cccc(F)c1 (configuration not stated),-15.42,0.3712,5.274
CCN(CC)Cc1ccc(CNC(=O)C(C)(C)n2cc(Br)cn2)cc1,-0.1604,-14.37,-2.208
Cc1ccc(-c2noc(C(C)NS(C)(=O)=O)n2)cc1 (configuration not stated),19.65,-10.92,-1.747
COC(=O)c1cc(NC(=O)CCc2cscn2)ccc1C,1.061,-0.9042,16.84
O=C(O)C(F)(F)F.[H][C@@]12CCCO[C@]1([H])[C@H](OCC(=O)N(C)C)CN2Cc1ccccc1F,-1.507,-39.74,10.19
O=C(O)C(F)(F)F.[H][C@@]12CCN(Cc3ccc(F)cc3)CC[C@]1([H])[C@@H](COC)CNC2=O,9.408,3.028,21.36
COCCN(C(=O)c1c[nH]c2ncccc12)C1CCCC1,7.334,-7.079,-1.906
COc1ccccc1N1CCN(C(=O)CCn2ccc(C)n2)CC1,32.85,-10.44,-13.47
[H][C@]12CN(C(=O)c3ccno3)CCN1C(=O)N(Cc1ccc(F)cc1)C2,6.564,-5.795,5.635
CN(C)[C@@H]1C[C@@H](CO)N(C(=O)Nc2ccc(SC(F)(F)F)cc2)C1,4.506,-51.08,42.86
CC(C)(C(=O)N1CCCC(OCc2cccnc2)C1)n1cccc1 (configuration not stated),21.84,-13.82,10.89
Cc1cccc(CN2CCCC(O)(CNCCN3CCCCC3)C2=O)c1 (configuration not stated),6.974,-37.04,27.57
Cc1cc(C(=O)Nc2cnn(CC(F)(F)F)c2)nc(N2CCOCC2)n1,69.43,-25.54,41.17
O=C(NC[C@H]1OC[C@@H](NC2CCC(F)(F)CC2)[C@@H]1O)N1CCOCC1,9.518,-4.512,18.82
O=S(=O)(c1ccc(Cl)s1)N1CCCC(c2ncc[nH]2)C1 (configuration not stated),4.911,-25.75,-12.2
O=C(Nc1cc(CCC2CCN(CCO)CC2)ccn1)c1ccccn1,-6.368,100.1,18.61
N#Cc1c(F)cccc1N1CCC(C(=O)Nc2nccs2)CC1,14.99,-4.872,8.432
Cn1cccc(NC(=O)NCCc2cccc(O)c2)c1=O,-3.581,-5.264,-2.394
Cc1ccc(C(O)CNCc2c(C(C)C)nn(C)c2N(C)C)cc1 (configuration not stated),11.01,54.73,25.96
O=C1CCC2(CCN(c3cccc(C(F)(F)F)n3)CC2)CN1CCO,6.156,3.333,7.186
COc1cc(CN2CCCC2)ccc1OC12CCCN(CC1)C2 (configuration not stated),-1.682,-24.54,42.17

The first 4 entries again:

structure	Toxoplasma	T. brucei	Leishmania in macrophages
COc1cc(CN(C)Cc2cccnc2)c(SC)cc1OC	4.291	13.92	13.84
c1ncc2c(n1)CN(Cc1cn3ccsc3n1)CC2	16.06	-23.68	21.81
Cc1ccnc(N2CCN(C3CCS(=O)(=O)C3)CC2)n1 (configuration not stated)	4.502	-49.42	35.71
CN1CCOC[C@H]1c1nc(-c2ccccc2)c[nH]1	-4.762	-9.627	13.56